Measurements published in article PMC5414174, “DNA replication licensing factor Cdc6 and Plk4 kinase antagonistically regulate centrosome duplication via Sas-6” (Nature Communications, 2017).
Residue numbers refer to the chain shown, from its start. These are yes or no findings as the source states them, for the method shown. Binding seen in cells or lysates may run through a third protein. Some results given as binding are weak or reduced against the parent protein; the word gives no strength. For part of these data: Sequences can lack the tags named with a protein. Values belong to the binder of their own block, whether it stands above or below them.

Key:
[1] = biological target: T1, HA-tagged Sas-6 (in vitro transcribed and translated) (human) (UniProt Q6UVJ0); assay: co-IP; same experiment as a9: purified His-Cdc6 2A added to in vitro translated HA-Sas-6 and HA-STIL with GST-Plk4; read-out is STIL bound to immunoprecipitated Sas-6; only the binder purified
T1 sequence: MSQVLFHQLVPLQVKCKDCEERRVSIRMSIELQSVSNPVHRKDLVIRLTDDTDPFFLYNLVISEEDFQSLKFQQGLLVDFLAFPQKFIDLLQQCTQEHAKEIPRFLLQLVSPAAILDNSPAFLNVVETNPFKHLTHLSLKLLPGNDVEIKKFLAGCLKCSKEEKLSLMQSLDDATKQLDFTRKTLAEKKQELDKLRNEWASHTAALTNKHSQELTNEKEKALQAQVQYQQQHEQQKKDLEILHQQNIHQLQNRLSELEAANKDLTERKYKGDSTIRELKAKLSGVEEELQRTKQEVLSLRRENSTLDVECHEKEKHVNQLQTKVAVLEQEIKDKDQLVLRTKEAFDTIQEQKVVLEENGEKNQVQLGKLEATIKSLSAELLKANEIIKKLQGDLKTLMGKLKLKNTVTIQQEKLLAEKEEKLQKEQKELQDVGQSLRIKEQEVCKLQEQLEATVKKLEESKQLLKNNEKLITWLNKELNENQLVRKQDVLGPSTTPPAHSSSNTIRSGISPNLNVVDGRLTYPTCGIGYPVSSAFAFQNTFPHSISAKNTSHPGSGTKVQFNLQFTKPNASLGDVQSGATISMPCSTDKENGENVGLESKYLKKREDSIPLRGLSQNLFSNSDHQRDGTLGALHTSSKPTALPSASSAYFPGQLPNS

[2] = biological target: T2, Plk4 (pull-down assay of Supplementary Fig. 4b) (human) (UniProt O00444); assay: pull-down; pull-down assay of Supplementary Fig. 4b; format not given
T2 sequence: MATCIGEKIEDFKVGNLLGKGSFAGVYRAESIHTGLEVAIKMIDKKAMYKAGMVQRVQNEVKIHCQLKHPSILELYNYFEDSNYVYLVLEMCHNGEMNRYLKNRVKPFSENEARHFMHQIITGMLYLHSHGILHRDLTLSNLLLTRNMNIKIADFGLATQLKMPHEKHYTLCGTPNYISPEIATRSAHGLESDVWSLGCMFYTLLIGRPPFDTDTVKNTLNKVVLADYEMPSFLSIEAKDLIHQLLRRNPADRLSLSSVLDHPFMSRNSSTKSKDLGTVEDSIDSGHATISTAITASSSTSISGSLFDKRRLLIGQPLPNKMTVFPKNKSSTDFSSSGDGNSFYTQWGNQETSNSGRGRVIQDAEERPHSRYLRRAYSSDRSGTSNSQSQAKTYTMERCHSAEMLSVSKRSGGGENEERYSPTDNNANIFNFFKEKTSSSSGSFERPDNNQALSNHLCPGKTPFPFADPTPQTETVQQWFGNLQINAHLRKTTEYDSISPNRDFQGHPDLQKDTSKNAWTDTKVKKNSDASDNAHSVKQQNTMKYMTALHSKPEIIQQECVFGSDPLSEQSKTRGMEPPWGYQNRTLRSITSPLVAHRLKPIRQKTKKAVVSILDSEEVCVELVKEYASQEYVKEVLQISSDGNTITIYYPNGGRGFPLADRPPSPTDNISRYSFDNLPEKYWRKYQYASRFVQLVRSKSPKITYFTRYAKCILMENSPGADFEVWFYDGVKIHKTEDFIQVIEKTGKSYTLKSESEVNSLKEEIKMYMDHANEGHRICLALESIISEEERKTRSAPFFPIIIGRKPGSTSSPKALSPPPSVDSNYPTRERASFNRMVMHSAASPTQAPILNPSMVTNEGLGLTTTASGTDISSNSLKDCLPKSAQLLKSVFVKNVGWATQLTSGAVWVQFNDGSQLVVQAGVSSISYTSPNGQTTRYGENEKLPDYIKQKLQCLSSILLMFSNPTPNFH

[3] = biological target: T3, GFP-tagged Cdc6 2A mutant (human) (UniProt Q99741); assay: co-IP; co-transfected HEK293 cells, total cell extract, IP with GFP antibody on protein A Sepharose, 20 mM Tris, 125 mM NaCl, 0.5% NP-40, pH 7.5, 2 h at 4 °C; western blot with Myc and GFP antibodies; in Fig. 4d cells released into S phase
T3 sequence: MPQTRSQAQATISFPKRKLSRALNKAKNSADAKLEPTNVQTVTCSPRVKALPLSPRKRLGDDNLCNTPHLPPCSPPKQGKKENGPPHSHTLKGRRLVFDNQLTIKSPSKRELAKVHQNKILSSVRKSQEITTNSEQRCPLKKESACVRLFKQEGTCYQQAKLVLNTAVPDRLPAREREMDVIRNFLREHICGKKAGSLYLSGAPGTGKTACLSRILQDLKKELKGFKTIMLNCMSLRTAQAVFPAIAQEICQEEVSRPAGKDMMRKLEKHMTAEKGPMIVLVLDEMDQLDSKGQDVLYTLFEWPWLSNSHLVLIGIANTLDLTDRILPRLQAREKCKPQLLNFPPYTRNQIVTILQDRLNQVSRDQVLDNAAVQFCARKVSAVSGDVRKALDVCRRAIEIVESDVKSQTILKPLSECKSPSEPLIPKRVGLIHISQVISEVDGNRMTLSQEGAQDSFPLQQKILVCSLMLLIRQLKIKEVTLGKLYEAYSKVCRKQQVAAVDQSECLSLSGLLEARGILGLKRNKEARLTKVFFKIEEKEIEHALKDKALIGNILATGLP

[4] = biological target: T4, GFP-tagged Cdc6 WT (human) (UniProt Q99741); assay: as above
T4 sequence: T3 sequence with A30S, A527T

[5] = biological target: T5, His-tagged Cdc6 (in vitro transcribed and translated) (human) (UniProt Q99741); assay: co-IP; in vitro: in vitro translated His-Cdc6 (or mutant) and His-Sas-6 incubated with purified GST or GST-Plk4 in kinase reaction buffer (200 μM ATP, pH 7.5) 30 min at 30 °C, then IP with Cdc6 antibody in immunoprecipitation buffer 2 h at 4 °C; blots with Cdc6 and Sas-6 antibodies
T5 sequence: T3 sequence with A30S, A527T

[6] = biological target: T6, His-tagged Cdc6 2A mutant (in vitro transcribed and translated) (human) (UniProt Q99741); assay: as above
T6 sequence: T3 sequence

- binding [1]: binds
B1: His-tagged Cdc6 2A mutant (purified) (protein, UniProt Q99741 1-560)
chain: T3 sequence

- binding [2]: binds
B2: Cdc6 (pull-down assay of Supplementary Fig. 4b) (protein, UniProt Q99741 1-560)
chain: T3 sequence with A30S, A527T

- binding [3]: binds
- binding [4]: binds
B3: Myc-tagged Sas-6 (protein, UniProt Q6UVJ0 1-657)
chain: T1 sequence

- binding [5]: binds
- binding [6]: binds
B4: His-tagged Sas-6 (in vitro transcribed and translated) (protein, UniProt Q6UVJ0 1-657)
chain: T1 sequence
